PubChem BioAssay AID1159594 | NIAID – 2016

Aim: 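Genes required for a TNF reporter response to diacyl lipopeptide stimulation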
System: human THP-1 B5 reporter cells, PMA-differentiated into macrophage-like cells
Reagent: single siRNA against human genes
Timing: 48 to 72 hours after siRNA transfection; ligand exposure 4 hours
Treatment: Pam2CSK4 (TLR2/6 agonist) stimulation for 4 hours before lysis; dose not given
Measured: 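Robust z-score, relative to negative controls, of the firefly/renilla ratio from a TNF promoter reporter, after per-plate median/MAD scaling, mean of replicate screens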
Reading the numbers: TNF reporter z-score: higher = stronger TNF promoter reporter activity
Rule for the call: 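Active when the mean z-score across replicates is at or beyond ±1.5 in either direction, matching a depositor grade of 50 or higher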
Meaning of the calls: active = z-score beyond ±1.5 (either direction); inactive = z-score within ±1.5
The whole screen tested 756 reagents; below is a random part of them. Of all reagents, 130 (17%) are marked active. 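Active calls cover both falls and rises of reporter activity; each row reflects one siRNA, not a gene-level verdict.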 Reagents against one gene are numbered here. Not stated in the record: the amount of reagent.

gene | reagent | TNF reporter z-score, replicate mean | Call
MAPK12 | 1 | 0.318 | inactive
MAPK12 | 2 | -0.826 | inactive
MAPK12 | 3 | -0.244 | inactive
MAPK12 | 4 | -1.05 | inactive
MAPK12 | 5 | 0.164 | inactive
MAPK12 | 6 | -0.318 | inactive
IL12B | 1 | -1.98 | active
IL12B | 2 | -0.887 | inactive
IL12B | 3 | -1.28 | inactive
IL12B | 4 | -0.197 | inactive
IL12B | 5 | -2.15 | active
IL12B | 6 | -0.801 | inactive
ATF2 | 1 | -1.46 | inactive
ATF2 | 2 | -0.651 | inactive
ATF2 | 3 | -1.01 | inactive
ATF2 | 4 | -0.295 | inactive
ATF2 | 5 | -0.663 | inactive
ATF2 | 6 | -1.21 | inactive
IKBKB | 1 | 0.361 | inactive
IKBKB | 2 | -0.903 | inactive
IKBKB | 3 | 0.532 | inactive
IKBKB | 4 | 0.219 | inactive
IKBKB | 5 | -0.0622 | inactive
IKBKB | 6 | -0.247 | inactive
MAP2K2 | 1 | -1.17 | inactive
MAP2K2 | 2 | -0.0895 | inactive
MAP2K2 | 3 | -0.964 | inactive
MAP2K2 | 4 | 0.102 | inactive
MAP2K2 | 5 | -0.858 | inactive
MAP2K2 | 6 | -0.671 | inactive
EGR1 | 1 | -2.8 | active
EGR1 | 2 | -2.42 | active
EGR1 | 3 | -1.18 | inactive
EGR1 | 4 | -0.97 | inactive
EGR1 | 5 | -0.509 | inactive
EGR1 | 6 | -0.883 | inactive
IRAK4 | 1 | -0.711 | inactive
IRAK4 | 2 | 0.228 | inactive
IRAK4 | 3 | 0.371 | inactive
IRAK4 | 4 | -0.56 | inactive
IRAK4 | 5 | -0.445 | inactive
IRAK4 | 6 | -0.208 | inactive
MYD88 | 1 | -0.877 | inactive
MYD88 | 2 | 0.0377 | inactive
MYD88 | 3 | -2.16 | active
MYD88 | 4 | -0.51 | inactive
MYD88 | 5 | 1.23 | inactive
MYD88 | 6 | 1.58 | active
NFKB1 | 1 | -1.74 | active
NFKB1 | 2 | -0.788 | inactive
NFKB1 | 3 | -1.18 | inactive
NFKB1 | 4 | -0.51 | inactive
NFKB1 | 5 | 0.636 | inactive
NFKB1 | 6 | -0.505 | inactive
TLR6 | 1 | 0.22 | inactive
TLR6 | 2 | 0.521 | inactive
TLR6 | 3 | -0.447 | inactive
TLR6 | 4 | 0.65 | inactive
TLR6 | 5 | 0.0147 | inactive
TLR6 | 6 | -0.355 | inactive
PIK3CG | 1 | -2.16 | active
PIK3CG | 2 | -0.331 | inactive
PIK3CG | 3 | -0.0584 | inactive
PIK3CG | 4 | -0.791 | inactive
PIK3CG | 5 | -0.734 | inactive
PIK3CG | 6 | -1.53 | active
TLR4 | 1 | -0.634 | inactive
TLR4 | 2 | -0.339 | inactive
TLR4 | 3 | 0.44 | inactive
TLR4 | 4 | 0.231 | inactive
TLR4 | 5 | -1.16 | inactive
TLR4 | 6 | -0.488 | inactive
RELA | 1 | -1.86 | active
RELA | 2 | -1.53 | active
RELA | 3 | -1.84 | active
RELA | 4 | -2.52 | active
RELA | 5 | -1.62 | active
RELA | 6 | -2.83 | active

Taken from above:
Value for TLR6 #4 under “TNF reporter z-score, replicate mean”: 0.65
RELA #5, TNF reporter z-score, replicate mean: -1.62
Result for TLR4 #2 in “Call”: inactive
Value of NFKB1 #1 in “TNF reporter z-score, replicate mean”: -1.74
For “TNF reporter z-score, replicate mean”, IL12B #1 reads -1.98
Value of ATF2 #5 in “TNF reporter z-score, replicate mean”: -0.663
